In the supplement of paper PMC5949888:
Most values lie at the floor of the assay. Slopes are relative: functional sequences can read slightly below zero.

Each substance was assayed on Saccharomyces cerevisiae PS128 hsf1 delta, HSF1(1-493) fusion (assay: growth estimate (transactivation domain function in HSF1 fusion, heat-shock survival) (a.u. (slope of normalised read count over time)); higher = stronger growth at 37°C, i.e. more transactivation activity). Conditions: library: random library.
Experimental: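 Random 60-nt DNA library encoding peptides of up to 20 aa, fused to the C-terminus of yeast HSF1 residues 1-493 (C-terminal TAD deleted) and expressed from the native HSF1 promoter on a CEN plasmid in hsf1-deleted S. cerevisiae PS128. Cells were selected at 37°C on -trp 5-FOA plates for 0, 2, 4, 6 and 8 days and amplicons were sequenced. Growth estimate is the slope of a robust linear fit of total-sum-normalised read counts (normalised to the first time point) over time, using at least 2 replicates. Sequences are classed functional (TAD activity) above a threshold of -0.13, set from stop-codon control sequences.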

Substance | growth estimate
SWLCFQTCEWCA | < -0.25
DSVKLADTMN | < -0.25
VTYQIRPEE | < -0.25
KETQVWADLIGINCTRLHGS | < -0.25
VANSPSMWLQLRLGRPNLA | < -0.25
QILKRVWQFGSRAVDVQLFT | < -0.25
ARDV | < -0.25
ILYLRGFSRCTRLFDLFAKR | < -0.25
LLGK | < -0.25
GLVGDCTTK | < -0.25
IMHEGDIVRTRWRVYTRDNC | < -0.25
PGPMRKWRRCVSRAWALRRC | -0.245
DFYWPARNASMAQ | < -0.25
GTPNIRRRSRQP | < -0.25
MNPID | < -0.25
KRACSSCFQSKTPAAYCEGP | < -0.25
ERPTAQTCRHVGVAYPQIPW | < -0.25
DQRVQERRKAQDWRL | < -0.25
FQSVNWLVTLLELIMTGNSI | < -0.25
VSRRFHRSG | < -0.25
RRLT | < -0.25
YDVGKWPLRERYTVGGGPPI | < -0.25
YYDYAVCELVC | < -0.25
RTHRCLTPLRAQDLAYGGPS | < -0.25

Substance | growth estimate
QGPTSGLG | < -0.25
GPIRPNVEGAEYYCHEVPLG | < -0.25
VATRGQYRQCSWQSNSSAIG | < -0.25
CVSRKAFIPGTRRTHLRVCH | < -0.25
SFWLIHFIFNRVLNAP | < -0.25
PDVRVPSYRYKAS | < -0.25
SLTGPFVSIYPMIGPSDANS | < -0.25
PPATPVMNVSSVRDKPSGTY | < -0.25
VGSIGAAIHNYGDRVCGKKR | < -0.25
PPLVRVDRRPRYCYICCTRD | < -0.25
CTPEFPELLGTLFWTNKRTL | < -0.25
WRSTFNDTHLWIFCVRLAWP | < -0.25
VTGL | < -0.25
SMAVRLISTAP | < -0.25
DCAVGLA | -0.243
CSKSDGGGQF | < -0.25
VVYKLTESGSGRRFVERCTW | < -0.25
SVASLLLEGVLPVSPLARPH | < -0.25
AGGCSAIP | < -0.25
MCTDFGGYRVTRNRRSRCSF | < -0.25
DKVIRVESWVLWI | < -0.25
TATVERWTRWHRMLGFNCFA | < -0.25
RVRKQVVVSRRQCIGPLVTD | < -0.25
LGKCRSSFHLRVRGTSGFRA | < -0.25

Substance | growth estimate
PVIATVGLDRIQSRACLSRE | < -0.25
QMVEG | < -0.25
RGRQ | < -0.25
CTARPERTSSRGTAASKGTF | < -0.25
GSSIQSQGYPGLVGSSHRLE | -0.0559
TDLEFCW | < -0.25
AGMFAASAFNSGHFFVGQGL | < -0.25
MDMVLLSE | < -0.25
GVYSPPLQ | < -0.25
RGSSRMG | < -0.25
QEVILGSPGVSSCKV | < -0.25
PTIHGG | < -0.25
LIHIGVARTLTHYHASSDKS | < -0.25
GPRKSLAVLSRDLDYNKLAG | < -0.25
DDKLLDFWCGNGCIVSRADV | < -0.25
SMRSGRKDGN | < -0.25
IIFSRRHLFKLLTAGLLPRR | < -0.25
DPYREWHGRTV | < -0.25
CAQQLSVQHATDPFSITARS | < -0.25
CSDRRGRPVTRGL | < -0.25
CTQIPSAVGLAIGELLFKDA | < -0.25
SRCVRLLGDPCMLPAV | < -0.25
IPVS | < -0.25
VRIGSSVGHVLEPVLCTGGT | < -0.25

4 entries picked at random from those above, as already listed:
Substance | growth estimate
DDKLLDFWCGNGCIVSRADV | < -0.25
PTIHGG | < -0.25
CSDRRGRPVTRGL | < -0.25
TDLEFCW | < -0.25

Further results.

Substance | growth estimate
KRGLRALLESASPFRC | < -0.25
SIYDANIGRYLVQLPDHF | -0.236
KPSQ | < -0.25
ILPPNH | < -0.25
DRLTKDLTTSPEVVLLPGFD | < -0.25
IRLAYR | < -0.25
RSRSRGAVSSVYAVVTAGVQ | < -0.25
NTEVRLP | < -0.25
NLSSRVPLR | < -0.25
LNAQKVLNLALPP | < -0.25
RRAWVWRRG | < -0.25
SEPPASKEDFSRDINVTPVM | < -0.25
CSVYHAQLPLCLRGGIV | < -0.25
HEMYPVHRLLLIQQKNGLQH | < -0.25
NHSTY | -0.25
GWKSFNPETGAPSKSLETRG | < -0.25
VNGA | < -0.25
FWACCSHRHGCCTCDGWFS | < -0.25
RWFLLGDERIKDWVSPPYPR | < -0.25
FNRPVLRSRTEG | < -0.25
ILTQGSTVSPPYHRVGPITS | < -0.25
DPPDLLVTRDF | < -0.25
ELGHPKVGHINVYRTKSATE | < -0.25
